Results of single-concentration screens

By UniProt entry, the sequences of proteins in these tests, tags left out. Residues count along the entry.
UniProt Q8IDJ8, 1-583: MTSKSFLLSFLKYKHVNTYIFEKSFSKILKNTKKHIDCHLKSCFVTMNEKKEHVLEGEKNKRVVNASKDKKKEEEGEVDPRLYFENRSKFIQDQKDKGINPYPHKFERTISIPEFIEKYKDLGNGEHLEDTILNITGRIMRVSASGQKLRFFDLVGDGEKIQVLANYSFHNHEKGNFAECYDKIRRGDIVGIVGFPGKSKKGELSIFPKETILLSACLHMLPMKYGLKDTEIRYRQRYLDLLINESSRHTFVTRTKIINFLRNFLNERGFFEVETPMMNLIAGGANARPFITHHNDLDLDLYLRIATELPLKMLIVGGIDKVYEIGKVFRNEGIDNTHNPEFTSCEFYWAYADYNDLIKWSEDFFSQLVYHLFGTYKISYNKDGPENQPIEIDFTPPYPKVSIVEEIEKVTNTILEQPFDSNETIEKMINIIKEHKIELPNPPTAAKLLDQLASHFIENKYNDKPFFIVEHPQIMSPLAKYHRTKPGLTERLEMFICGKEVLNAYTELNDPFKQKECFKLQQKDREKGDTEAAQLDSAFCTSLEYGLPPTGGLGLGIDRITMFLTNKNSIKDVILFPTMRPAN
UniProt A4I591, 1-473: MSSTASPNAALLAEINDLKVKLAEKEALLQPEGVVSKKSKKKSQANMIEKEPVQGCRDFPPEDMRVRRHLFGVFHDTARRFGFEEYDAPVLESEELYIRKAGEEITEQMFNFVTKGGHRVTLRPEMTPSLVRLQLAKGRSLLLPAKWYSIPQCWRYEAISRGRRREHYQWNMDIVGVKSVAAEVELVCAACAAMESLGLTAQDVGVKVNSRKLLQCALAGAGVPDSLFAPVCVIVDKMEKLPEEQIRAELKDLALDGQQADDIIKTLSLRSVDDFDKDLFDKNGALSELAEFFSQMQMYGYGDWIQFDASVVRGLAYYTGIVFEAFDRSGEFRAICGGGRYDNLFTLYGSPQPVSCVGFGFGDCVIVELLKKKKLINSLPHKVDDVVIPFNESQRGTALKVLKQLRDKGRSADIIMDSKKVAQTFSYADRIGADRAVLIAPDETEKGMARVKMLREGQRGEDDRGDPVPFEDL

Data taken from ChEMBL document CHEMBL3988442, “University of Dundee, Small-Polar-MMV Screening Library” (2021).

Values are the deposited “Percent Effect”, in %. The controls that fix the scale are not given in the record; negative values are as filed. Compounds were drawn at random from those tested, without regard to their results. Two or more numbers in one place are separate tests of the same structure; such repeats can differ widely. A dash means the value is not listed here; it may have been measured.

Leishmania in macrophages: 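Cell assay of Leishmania donovani living inside macrophages; the read-out is not stated. Tested at 30 µM. Direction is inferred from retests: higher values go with stronger inhibition. Of about 69,000 compounds tested this way, about 1,000 (1.5%) reached 50% or more in at least one test.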
PfKRS1: 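Enzyme assay of the cytosolic lysyl-tRNA synthetase in 384-well plates, read by luminescence. Target: Lysine-tRNA ligase, Plasmodium falciparum 3D7 (UniProt Q8IDJ8). Tested at 30 µM. Direction is inferred from only a few compounds that gave an IC50; most scored high, so higher reads as stronger inhibition. About 69,000 compounds were tested under these conditions; 0.071% (about 49) showed 50% or more at least once.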
LiHisRS: 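Enzyme assay of histidyl-tRNA synthetase; the read-out is not stated. Target: Histidine-tRNA ligase, Leishmania infantum (UniProt A4I591). Concentration: 30 µM. Direction is inferred from retests: higher values go with stronger inhibition. The assay is labelled LdHisRS but filed under L. infantum. Size under these conditions: about 69,000 compounds, about 410 of them at 50% or above in at least one test.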

compound | Leishmania in macrophages | PfKRS1 | LiHisRS
CN1CCC(c2nc3ccc(-c4cccc(F)c4)cn3n2)CC1.O=C(O)C(F)(F)F | 56.26% | - | -
CCc1nc(C)c(C(=O)NCCNc2ncccc2C#N)s1 | -7.772% | -0.5999% | 9.649%
CN1CCC(c2cccc(NCc3nccn3C)n2)CC1 | 17.02% | -1.759% | 0%
O=C(O)C(F)(F)F.[H][C@@]12CCN(CCc3ccccc3)C[C@@]1([H])O[C@@H](C(=O)NC1CC1)C2 | 7.043% | - | -
[H][C@@]12CCCC[C@]1(O)CCN(C(=O)c1ccc(C)cc1)C2 | -8.738% | - | -
Cc1cc(Cc2ccccc2)cc(C2CCCNC2)n1 (stereo not drawn) | 19.14% | 0.3434% | 11.43%
Cn1nc2c(cc1=O)CN(Cc1nnc(-c3ccco3)o1)CC2 | 0.5165% | 14.63% | 76.6%
c1cncc(CN2CCC3(CC2)CC(c2cccnc2)CO3)c1 (stereo not drawn) | - | 2.801% | 9.722%
Cc1cc(NC(=O)COC(=O)c2ccc(F)cc2Br)n(C)n1 | 15.29% | 4.77% | 6.25%
CCO[C@@H]1CCN(c2ccc(C)nn2)[C@@H]1Cc1cnn(C)c1 | 0.4483% | 6.528% | 24.77%
CSC(C)C(=O)N(C)C1CCN(c2ccc(Cl)cc2)CC1 (stereo not drawn) | -40.06% | 6.058% | 15.15%
[H][C@@]12CCN(C[C@@H]1CN1CCCC1)[C@@H](CNS(=O)(=O)c1ccc(Cl)cc1)C2 | 34.94% | - | -
Cc1cccc(CN2CC[C@@H]3[C@@H]2CCN3C(=O)c2cc(C)on2)n1 | - | -3.427% | 7.692%
CCn1cc(C(=O)Nc2ccc(C)cc2C(=O)OC)cn1 | -15.68% | 3.85% | 14.29%
OC1CCN(Cc2ccc(CNc3ncc(Cl)cc3F)cc2)CC1 | 26.85% | 4.998% | 3.896%
Cc1nc(O)cc(C2CCCN(Cc3c(Cl)cncc3Cl)C2)n1 (stereo not drawn) | 23.25% | 5.831% | 40.96%
O=C(Nc1ccccc1)N1C[C@H]2CC[C@@H]1CN(Cc1ccccc1)C2 | - | 2.081% | -1.075%
[H][C@]12CN(CCN3CCCC3)C(=O)[C@@]1([H])CN(c1cc(OC)ncn1)C2 | 8.296% | - | -
Cc1nc(C)c(C(=O)N2CCC(Nc3cccnc3)CC2)s1 | -8.595% | 4.311% | 34.29%
Cc1cc(C(=O)NS(C)(=O)=O)c(C)n1-c1ccccc1 | 14.5% | 0.1315% | 5.085%
Cc1ccc(CC(=O)N2CCCC2Cn2nc(C)cc2C)cn1 (stereo not drawn) | 16.64% | 0.6987% | 0.8772%
Cc1nonc1CN1CC[C@@](O)(C2CCOCC2)[C@H](C)C1 | 44.91% | 6.883% | 15.69%
O=C(CN1CCCCC1Cn1cncn1)NCCc1ccc(F)cc1 (stereo not drawn) | 6.636% | 9.351% | -3.371%
Cc1cccc(C2(CNC(C)c3nnc(C)o3)CCCC2)c1 (stereo not drawn) | 16.07% | 2.358% | 0%
Cc1ccc(CN2CC[C@@H](NC(=O)c3cccnc3)[C@H](O)C2)o1 | -8.548% | 8.896% | 16.05%
CC(C)C(C)(C#N)NC(=O)CN1CCCN(Cc2ccccc2F)CC1 (stereo not drawn) | 32.78% | 2.941% | 12.5%
CCC(C)c1csc(NC(=O)Cc2csc(-c3nnc[nH]3)n2)n1 (stereo not drawn) | 56.95% | -3.203% | 20%
N#Cc1cccc(CNCCC(=O)N2CCc3sccc3C2)c1 | -9.796% | -1.403% | 5.376%
O=C(NCCc1ccc2c(c1)OCO2)C1CCCN(Cc2ccco2)C1 (stereo not drawn) | 6.514% | 1.935% | 9.375%
O=C(NCc1cccnc1)N1CCc2ncnc(NC3CC3)c2CC1 | - | 5.093% | 8.182%
N#Cc1ccc(OC[C@]23COC[C@H]2CN(Cc2nccs2)C3)nc1 | - | 4.71% | 22.58%
CN(C)Cc1nnc(C2CCCN(c3ncccc3F)C2)n1C (stereo not drawn) | -48.66% | 4.007% | 5.833%
COc1ccc(C(=O)N2CCC(Nc3cccnn3)CC2)cn1 | 11% | -0.3251% | -2.655%
CS(=O)(=O)N1CC[C@H]2OCC[C@@]2(C(=O)NCc2ccccn2)C1 | - | 3.069% | 15.45%
COc1ccc2c(c1)NC(C1CCNCC1)NS2(=O)=O (stereo not drawn) | 17.74% | 0.7582% | 12.77%
Cc1nnc(SCc2cc(=O)n3c4c(sc3n2)CCCC4)[nH]1 | 36.41% | 7.4% | 25%
CN1CCN(C(=O)NCCc2ccc(F)cc2)[C@H]2CS(=O)(=O)C[C@H]21 | - | 6.448% | 10.26%
CC(C)(C)OC(=O)NCC1CCN(C(=O)c2ccccc2O)CC1 | 29.6% | 0.2739% | 21.88%
CC(C)Cn1cc(NC(=O)N2CCOC(c3ccccc3)C2)cn1 (stereo not drawn) | 4.831% | -0.39% | 12.07%
O=C(O)C1(Oc2cccc(F)c2)CCN(C2CCOCC2)CC1 | 20.37% | -1.853% | 3.297%
Cc1ccc(CNC(=O)Nc2nnc(C3CC3)s2)n1C | 9.698% | 4.344% | 19.4%
CC(C)N1CCCC(C(=O)N2CCN(c3cccc(C(=O)O)c3)CC2)C1 (stereo not drawn) | 16.19% | 1.188% | 0%
Cc1ccccc1-n1cnc(Cl)c1C(=O)O | 51.36% | 3.328% | 18.37%
NCc1n[nH]c(=O)n1-c1cccc(Cl)c1Cl | 1.209% | 6.879% | 16.39%
Cn1nc(Cn2cccc2)c2c1CN(Cc1ccoc1)C2.O=C(O)C(F)(F)F | 9.684% | - | -
Cc1nccc(N[C@H]2CN(C(=O)CN3CCOCC3)C[C@@H]2C(C)C)n1 | 9.574% | 0.5555% | 4.878%
CCn1ncnc1CN1CCC(CNC(=O)c2ccccc2C#N)C1 (stereo not drawn) | -28.89% | 3.71% | 8.989%
CCC(CNC(=O)OC)(OC)c1ccccc1 (stereo not drawn) | 15.87% and 21.43% | 0.9167% | 5.217%
CCN1C(=O)C(C)(C)c2cc(NC(=O)c3ccn(CC)n3)ccc21 | 17.87% | 6.302% | 20%
Cc1noc(C)c1-c1n[nH]c2c1CN(S(=O)(=O)c1cccnc1)CC2 | 13.91% | 0.215% | 4.651%
CC(C)COC(=O)N1CC(=O)N(CCCc2ccccc2)CC(O)C1 (stereo not drawn) | 2.073% | 3.23% | 10.2%
CCOc1ccc(NC(=O)Cn2cc(I)cn2)cc1 | 13.61% and -14% | 3.564% | 5.263%
c1csc(CNCC2COCc3c(-c4ccoc4)nnn3C2)n1 (stereo not drawn) | - | 10.38% | 18%
Cc1nc(C2(NCC(=O)NC(=O)NCC(F)(F)F)CCCCC2)no1 | -10.69% | -0.7792% | -2.247%
CC(C)=CCCC1(C)CCC(=O)N(CCc2nc(N)cc(O)n2)C1 (stereo not drawn) | 17.81% | 2.032% | 9.836%
CN(Cc1cccnc1)CC1CC12CCCC2 (stereo not drawn) | -18.82% | -3.436% | 10.2%
CCOCC(=O)N1CCC(CSCc2ccco2)CC1 | 24.87% | 4.993% | 19.66%
Cc1cnc(N2CCOC3(CCCN(C)C3)C2)nc1 (stereo not drawn) | - | 0.3987% | 7.692%
O=C(CCn1cccn1)NCCOc1cccc(Cl)c1 | 25.93% | 2.884% | 10.59%
CC(NC(=O)Cn1ccnc1)c1ccc(OCC2CC2)c(F)c1 (stereo not drawn) | 11.29% | 1.696% | 11.32%
Cc1noc([C@@H]2C[C@H]3CN(Cc4ccc5c(c4)OCO5)C[C@H]3O2)n1 | - | 0.8258% | 14%
CC(C)c1nccn1-c1nccnc1C1CCCN1Cc1cccnc1 (stereo not drawn) | 15.19% | 3.734% | 12.68%
Cc1cc(CN2CCc3nc(-c4ccncc4)nc(O)c3CC2)c(C)s1 | 13.62% | 2.063% | 15.49%
COc1ccc(F)c(-c2nccn2CCN2CCCC2)c1 | -0.7718% | -0.8992% | 20.97%
O=C(c1nc2c(s1)CCCN2CC1CC1)N1CCOCC1 | -0.8277% | 11.53% | 94%
COc1ccc2nc(C3CC3)cc(C(=O)NCCc3nnc[nH]3)c2c1 | 12.75% | 4.407% | 23.94%
COCC(=O)N1CCCC1c1cccc(C)c1C (stereo not drawn) | -13.67% | -3.622% | 0%
O=C(Cc1ccco1)N1C[C@H]2CCC[C@@]2(COc2cccnc2)C1 | - | 5.04% | 24%
Cc1ccccc1C(=O)NCCC(=O)NS(=O)(=O)c1cccnc1 | -3.92% | 0% | 6.349%
CCNC(=O)NC1CCN(c2ccc(S(=O)(=O)CC)cc2)CC1 | 12.14% | 1.197% | 3.306%
CCN1CCC(c2nnc(CN3CCCC3)n2C2CC2)CC1 | -1.359% | 4.239% | 15.15%
Cc1cc(C)n(CCC(=O)N2CCCC(c3cc(C(N)=O)[nH]n3)C2)n1 (stereo not drawn) | -24.88% | 0.3741% | 7.895%
CN(C)CCN(Cc1ccsc1)C(=O)C1=NNC(=O)CC1 | 14.79% | -0.049% | 3.226%

Repeated from the top, 6 entries:

* CN1CCC(c2nc3ccc(-c4cccc(F)c4)cn3n2)CC1.O=C(O)C(F)(F)F | Leishmania in macrophages: 56.26%
* CCc1nc(C)c(C(=O)NCCNc2ncccc2C#N)s1 | Leishmania in macrophages: -7.772%; PfKRS1: -0.5999%; LiHisRS: 9.649%
* CN1CCC(c2cccc(NCc3nccn3C)n2)CC1 | Leishmania in macrophages: 17.02%; PfKRS1: -1.759%; LiHisRS: 0%
* O=C(O)C(F)(F)F.[H][C@@]12CCN(CCc3ccccc3)C[C@@]1([H])O[C@@H](C(=O)NC1CC1)C2 | Leishmania in macrophages: 7.043%
* [H][C@@]12CCCC[C@]1(O)CCN(C(=O)c1ccc(C)cc1)C2 | Leishmania in macrophages: -8.738%
* Cc1cc(Cc2ccccc2)cc(C2CCCNC2)n1 (stereo not drawn) | Leishmania in macrophages: 19.14%; PfKRS1: 0.3434%; LiHisRS: 11.43%